Measurements reported in PubChem BioAssay AID1259308 (NCATS, 2017).

Purpose: 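Genes whose loss raises luciferase production in HEK293 cells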 (primary screen)
System: human HEK293 embryonic kidney cells stably expressing firefly luciferase (HEK-CMV-Luc2-Hygro)
Knock-down reagent: single siRNA against human genes, 0.8 pmol siRNA per well
Duration: 72 h
Measured: 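Luciferase light (ONE-Glo) measured on one replicate plate set and viability (CellTiter-Glo) on the other, scaled to a negative control siRNA, with robust z-scores and luciferase per cell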
Reading the numbers: total luciferase, z-score and total luciferase, % of control: higher = more reporter protein produced; luciferase per cell, z-score: higher = more reporter output per viable cell; viable cells, % of control: higher = more viable cells
Hit rule: 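An siRNA counts as active if its total luciferase robust z-score exceeds 3; genes with two or more such siRNAs out of three were retested with fresh siRNAs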
Meaning of the calls: active = raised luciferase; inactive = no rise
The whole screen tested about 59,000 reagents; below is a random part of them. About 1,510 of them (2.6%) count as active. 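Calls use total luciferase alone and ignore viability, so some active siRNAs may act by altering cell number.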 A number with no mark means an inactive call. The numbers tell different reagents against one gene apart.

Target gene | siRNA no. | total luciferase, z-score | total luciferase, % of control | luciferase per cell, z-score | viable cells, % of control
EPSTI1 | 1 | -0.288 | 76.2 | 1.27 | 60.9
EPSTI1 | 2 | -0.989 | 62.2 | -0.672 | 83
EPSTI1 | 3 | 0.372 | 89.3 | 0.413 | 89.5
NOD1 | 1 | 0.972 | 101 | 0.937 | 88.4
NOD1 | 2 | 0.137 | 84.6 | -0.138 | 98
NOD1 | 3 | 1.45 | 111 | 1.63 | 80.6
NPNT | 1 | -2.41 | 33.9 | -2.32 | 69.8
NPNT | 2 | -0.288 | 76.2 | -0.693 | 102
NPNT | 3 | 1.64 | 115 | 1.54 | 85.3
NUP93 | 1 | -2 | 42.1 | -1.96 | 78.7
NUP93 | 2 | -0.807 | 65.8 | -0.231 | 78.2
NUP93 | 3 | -1.4 | 54 | -0.332 | 65.9
PRSS8 | 1 | -1.36 | 54.8 | -1.61 | 93.5
PRSS8 | 2 | 1.23 | 106 | 0.754 | 97.5
PRSS8 | 3 | -0.395 | 74 | 0.114 | 80.3

Records listed so far whose gene name starts with N or n (9):
Target gene | siRNA no. | total luciferase, z-score | total luciferase, % of control | luciferase per cell, z-score | viable cells, % of control
NOD1 | 1 | 0.972 | 101 | 0.937 | 88.4
NOD1 | 2 | 0.137 | 84.6 | -0.138 | 98
NOD1 | 3 | 1.45 | 111 | 1.63 | 80.6
NPNT | 1 | -2.41 | 33.9 | -2.32 | 69.8
NPNT | 2 | -0.288 | 76.2 | -0.693 | 102
NPNT | 3 | 1.64 | 115 | 1.54 | 85.3
NUP93 | 1 | -2 | 42.1 | -1.96 | 78.7
NUP93 | 2 | -0.807 | 65.8 | -0.231 | 78.2
NUP93 | 3 | -1.4 | 54 | -0.332 | 65.9

Continued.
Target gene | siRNA no. | total luciferase, z-score | total luciferase, % of control | luciferase per cell, z-score | viable cells, % of control
VAV2 | 1 | 0.721 | 96.2 | 1.06 | 81.2
VAV2 | 2 | 4.27 (active) | 167 | 2.85 | 88
VAV2 | 3 | 2.95 | 141 | 2.49 | 81.5
C2orf68 | 1 | 0.532 | 92.5 | 0.572 | 88.9
C2orf68 | 2 | 0.933 | 100 | 0.868 | 89.3
C2orf68 | 3 | 1.5 | 112 | 0.577 | 107
STXBP4 | 1 | -0.254 | 76.8 | 0.138 | 82.8
STXBP4 | 2 | 1.23 | 106 | 2.38 | 63.5
STXBP4 | 3 | -1.26 | 56.8 | -1.64 | 97.8
BHLHE22 | 1 | -1.32 | 55.7 | -0.675 | 74.4
BHLHE22 | 2 | 0.162 | 85.1 | 0.0573 | 93.7
BHLHE22 | 3 | 0.376 | 89.4 | 0.556 | 86.3
DRC12 | 1 | -0.352 | 74.9 | -0.0493 | 84.8
DRC12 | 2 | -0.446 | 73 | -0.643 | 96.6
DRC12 | 3 | 0.882 | 99.4 | 2.25 | 61.5
FNTB | 1 | 0.535 | 92.5 | 0.171 | 98.8
FNTB | 2 | -0.00329 | 81.8 | -0.118 | 94.3
FNTB | 3 | 0.64 | 94.6 | 0.418 | 94.7
TBC1D30 | 1 | -1.02 | 61.7 | -0.566 | 80
TBC1D30 | 2 | 1.35 | 109 | 2.78 | 58.4
TBC1D30 | 3 | 1.64 | 114 | 1.62 | 83.5
CNOT2 | 1 | -0.145 | 79 | -0.399 | 98
CNOT2 | 2 | 0.24 | 86.7 | 0.2 | 91.9
CNOT2 | 3 | -0.75 | 67 | -0.475 | 84.8
